Earlier results as cited in publication PMC10227131 (Pharmacological Reports, 2023).
Where a name gives a salt, the structure may show the parent alone.

Test system: male Sprague–Dawley rats
Details: icv 100 nmol, n = 6; data re-used; ref [19]; cited from earlier work
Source text: […]. […] […].

CN1CC[C@]23c4c5ccc(O)c4O[C@H]2[C@@H](O)C=C[C@H]3[C@H]1C5 [morphine, morphine hydrochloride]
Mean (± SEM) ΔLatency-AUC: 12.0 (± 1.4) s.h
